The nature of the data set: general procedure: Fmoc solid-phase peptide synthesis; AM Resin (0.30 mmol/g); CTC Resin; HBTU/DIEA.
The mark [1] stands for this setting: whole synthesis, scale 0.50 mmol.

As to “3-((2S,5aR,11S,14R,17S,20S,23S,26S,32S,35S,38S,41S,44R,47S,49aS)-35-((1H-imidazol-5-yl)methyl)-17,38-bis((1H-indol-3-yl)methyl)-2-amino-47-(carboxymethyl)-11-((R)-1-hydroxyethyl)-41-(2-hydroxyethyl)-23,32-diisobutyl-20-isopropyl-5,10,13,16,19,22,25,28,31,34,37,40,43,46,49-pentadecaoxooctatetracontahydro-5H-14,44-(methanodithiomethano)dipyrrolo[1,2-a:1′,2′-d][1,4,7,10,13,16,19,22,25,28,31,34,37,40,43]pentadecaazacyclopentatetracontin-26-yl)propanoic acid”, under “whole synthesis”, the “final purity (method not given)” value turned out to be 98.0% purity and the isolated yield is 18.3% yield.

Regarding “3-((2S,5aR,11S,14R,17S,20S,23S,26S,32S,35S,38S,41S,44R,47S,49aS)-35-((1H-imidazol-5-yl)methyl)-17,38-bis((1H-indol-3-yl)methyl)-2-amino-47-(carboxymethyl)-11-((R)-1-hydroxyethyl)-41-(hydroxymethyl)-23,32-diisobutyl-20-isopropyl-5,10,13,16,19,22,25,28,31,34,37,40,43,46,49-pentadecaoxooctatetracontahydro-5H-14,44-(methanodithiomethano)dipyrrolo[1,2-a:1′,2′-d][1,4,7,10,13,16,19,22,25,28,31,34,37,40,43]pentadecaazacyclopentatetracontin-26-yl)propanoic acid (PDCSWHLGELVWCTP; D-residues; cyclised or stapled)”, where the note is “whole synthesis”, the “final purity (method not given)” value was determined as 95.4% purity and the isolated yield was 27.6% yield.

Consider “3-((2S,5aR,11S,14R,17S,20S,23S,26S,32S,35S,38S,41S,44R,47S,49aS)-35-((1H-imidazol-5-yl)methyl)-17,38-bis((1H-indol-3-yl)methyl)-47-(carboxymethyl)-2-(1-((2R,3R,4R,5S)-3,4-dihydroxy-5-((4-(trifluoromethyl)pyrimidin-2-yl)amino)tetrahydro-2H-pyran-2-yl)-2,5,8,11-tetraoxatridecan-13-amido)-11-((R)-1-hydroxyethyl)-23,32-diisobutyl-20-isopropyl-41-methyl-5,10,13,16,19,22,25,28,31,34,37,40,43,46,49-pentadecaoxooctatetracontahydro-5H-14,44-(methanodithiomethano)dipyrrolo[1,2-a:1′,2′-d][1,4,7,10,13,16,19,22,25,28,31,34,37,40,43]pentadecaazacyclopentatetracontin-26-yl)propanoic acid”, for which, where the note is “conjugation step”, the conjugation yield is recorded as 59.7% and the “final purity (method not given)” value is on record as 93.1% purity.

As to “3-((2S,5aR,11S,14R,17S,20S,23S,26S,32S,35S,38S,41S,44R,47S,49aS)-35-((1H-imidazol-5-yl)methyl)-17,38-bis((1H-indol-3-yl)methyl)-47-(carboxymethyl)-2-(3-(2-(2-(hex-5-ynamido)ethoxy)ethoxy)propanamido)-11-((R)-1-hydroxyethyl)-23,32-diisobutyl-20-isopropyl-41-methyl-5,10,13,16,19,22,25,28,31,34,37,40,43,46,49-pentadecaoxooctatetracontahydro-5H-14,44-(methanodithiomethano)dipyrrolo[1,2-a:1′,2′-d][1,4,7,10,13,16,19,22,25,28,31,34,37,40,43]pentadecaazacyclopentatetracontin-26-yl)propanoic acid”, under “whole synthesis”, the “final purity (method not given)” value was determined as 97.0% purity and the isolated yield stood at 2.37%.

On to “3-((2S,5aR,11S,14R,17S,20S,23S,26S,32S,35S,38S,41S,44R,47S,49aS)-35-((1H-imidazol-5-yl)methyl)-17,38-bis((1H-indol-3-yl)methyl)-47-(carboxymethyl)-2-(3-(2-(hex-5-ynamido)ethoxy)propanamido)-11-((R)-1-hydroxyethyl)-23,32-diisobutyl-20-isopropyl-41-methyl-5,10,13,16,19,22,25,28,31,34,37,40,43,46,49-pentadecaoxooctatetracontahydro-5H-14,44-(methanodithiomethano)dipyrrolo[1,2-a:1′,2′-d][1,4,7,10,13,16,19,22,25,28,31,34,37,40,43]pentadecaazacyclopentatetracontin-26-yl)propanoic acid”, for which, for the setting “whole synthesis”, the “final purity (method not given)” value is reported as 95.1% purity and the isolated yield stood at 2.20%.

Turning to “3-((2S,5aR,11S,14R,17S,20S,23S,26S,32S,35S,38S,41S,44R,47S,49aS)-35-((1H-imidazol-5-yl)methyl)-17,38-bis((1H-indol-3-yl)methyl)-47-(carboxymethyl)-11-((R)-1-hydroxyethyl)-23,32-diisobutyl-20-isopropyl-41-methyl-5,10,13,16,19,22,25,28,31,34,37,40,43,46,49-pentadecaoxo-2-(14-oxo-4,7,10-trioxa-13-azanonadec-18-ynamido)octatetracontahydro-5H-14,44-(methanodithiomethano)dipyrrolo[1,2-a:1′,2′-d][1,4,7,10,13,16,19,22,25,28,31,34,37,40,43]pentadecaazacyclopentatetracontin-26-yl)propanoic acid”, where the note is “whole synthesis”, the “final purity (method not given)” value is on record as 95.1% purity and the isolated yield worked out at 1.74%.

As for “3-((2S,5aR,11S,14R,17S,20S,23S,26S,32S,35S,38S,41S,44R,47S,49aS)-35-((1H-imidazol-5-yl)methyl)-38-((1H-indol-3-yl)methyl)-2-amino-47-(carboxymethyl)-17-((5-chloro-1H-indol-3-yl)methyl)-11-((R)-1-hydroxyethyl)-23,32-diisobutyl-20-isopropyl-41-methyl-5,10,13,16,19,22,25,28,31,34,37,40,43,46,49-pentadecaoxooctatetracontahydro-5H-14,44-(methanodithiomethano)dipyrrolo[1,2-a:1′,2′-d][1,4,7,10,13,16,19,22,25,28,31,34,37,40,43]pentadecaazacyclopentatetracontin-26-yl)propanoic acid”, where the note is “whole synthesis”, the “final purity (method not given)” value came to 97.9% purity and the isolated yield is 18.0% yield.

“3-((2S,5aR,11S,14R,17S,20S,23S,26S,32S,35S,38S,41S,44R,47S,49aS)-35-((1H-imidazol-5-yl)methyl)-38-((1H-indol-3-yl)methyl)-2-amino-47-(carboxymethyl)-17-((6-chloro-1H-indol-3-yl)methyl)-11-((R)-1-hydroxyethyl)-23,32-diisobutyl-20-isopropyl-41-methyl-5,10,13,16,19,22,25,28,31,34,37,40,43,46,49-pentadecaoxooctatetracontahydro-5H-14,44-(methanodithiomethano)dipyrrolo[1,2-a:1′,2′-d][1,4,7,10,13,16,19,22,25,28,31,34,37,40,43]pentadecaazacyclopentatetracontin-26-yl)propanoic acid”: under “whole synthesis”, the “final purity (method not given)” value came to 95.1% purity and the isolated yield is 23.3% yield.

Regarding “3-((6S,9R,12S,15S,18S,21S,27S,30S,33S,36S,39R,42S,44aS,46S,49aR)-30-((1H-imidazol-5-yl)methyl)-12,33-bis((1H-indol-3-yl)methyl)-42-(carboxymethyl)-6-((R)-1-hydroxyethyl)-18,27-diisobutyl-15-isopropyl-36-methyl-5,8,11,14,17,20,23,26,29,32,35,38,41,44,49-pentadecaoxo-46-(17-oxo-4,7,10,13-tetraoxa-16-azadocos-21-ynamido)octatetracontahydro-1H-9,39-(methanodithiomethano)dipyrrolo[1,2-a:1′,2′-d][1,4,7,10,13,16,19,22,25,28,31,34,37,40,43]pentadecaazacyclopentatetracontin-21-yl)propanoic acid”, for the setting “conjugation step, run 1”, the conjugation yield was determined as 34.3% yield and the “final purity (method not given)” value is given as 95.1% purity. Also, where the note is “conjugation step, run 2”, the conjugation yield stood at 57.50% yield and the “final purity (method not given)” value is given as 97.9% purity. Also, the isolated yield (whole synthesis, overall) is listed as 2.73%.

On to “3-((6S,9R,12S,15S,18S,21S,27S,30S,33S,36S,39R,42S,44aS,46S,49aR)-30-((1H-imidazol-5-yl)methyl)-12,33-bis((1H-indol-3-yl)methyl)-46-(4-(1-(((2R,3R,4R,5R)-5-acetamido-3,4-dihydroxy-6-methoxytetrahydro-2H-pyran-2-yl)methyl)-1H-1,2,3-triazol-4-yl)butanamido)-42-(carboxymethyl)-6-((R)-1-hydroxyethyl)-18,27-diisobutyl-15-isopropyl-36-methyl-5,8,11,14,17,20,23,26,29,32,35,38,41,44,49-pentadecaoxooctatetracontahydro-1H-9,39-(methanodithiomethano)dipyrrolo[1,2-a:1′,2′-d][1,4,7,10,13,16,19,22,25,28,31,34,37,40,43]pentadecaazacyclopentatetracontin-21-yl)propanoic acid”, for which, for the setting “conjugation step”, the conjugation yield turned out to be 66.8% yield and the “final purity (method not given)” value stood at 97.7% purity.

As to “3-((6S,9R,12S,15S,18S,21S,27S,30S,33S,36S,39R,42S,44aS,46S,49aR)-30-((1H-imidazol-5-yl)methyl)-12,33-bis((1H-indol-3-yl)methyl)-46-amino-6-((R)-1-hydroxyethyl)-18,27-diisobutyl-15-isopropyl-36,42-dimethyl-5,8,11,14,17,20,23,26,29,32,35,38,41,44,49-pentadecaoxooctatetracontahydro-1H-9,39-(methanodithiomethano)dipyrrolo[1,2-a:1′,2′-d][1,4,7,10,13,16,19,22,25,28,31, 34,37,40,43]pentadecaazacyclopentatetracontin-21-yl)propanoic acid”, under setting [1], the “final purity (method not given)” value is reported as 97.00% purity, the isolated mass was 144.00 mg and the isolated yield is listed as 16.640% yield. For the setting “whole synthesis, scale 0.50 mmol, run 1”, the crude mass was 1.20 g, crude. Moreover, where the note is “whole synthesis, scale 0.50 mmol, run 2”, the crude mass is given as 900.0 mg, crude.

The record behind these values is patent US12091402B2 (Avilar Therapeutics, Inc., priority 2021, dated 2024).
